Test results reported in PubChem BioAssay AID1347426 (Functional Genomics Laboratory (NCATS/FGL), 2020).
The whole screen tested about 31,000 sequences, of which about 1,400 (4.5%) were called active.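 Rule for the calls: active = median seed-adjusted z-score above 1 or below -1; inactive = the rest.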 This is one part of the list.

Experiment: Novel Modifiers of Survival Motor Neuron (SMN) Protein: Gene Identification via Genome-wide siRNA Screen;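 note: luminescence tracks full-length SMN protein made from the SMN2 reporter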
Details: HEK293T SMN2-luciferase reporter, siRNA knockdown, 72 h; actives lie on both sides
Outline: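 siRNA screen, 10418 genes ×3 siRNAs; 1 pmol/well, lipid reverse transfection into HEK293T SMN2-luc reporter line. 72 h, 37 °C, 5% CO2; ONE-Glo readout. Data: neg-ctrl normalized, log10, MAD; hit = MAD >1.0 or < -1.0.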

Row | Sequence | median seed-adjusted z-score
1 | AGACGGCGGUGGAACCAAATT against IL2RB | inactive: 0.333
2 | GACCCUAGCUUUAAGAGAATT against TGFA | inactive: -0.22
3 | GGUCAUCCGCAAACGGAAATT against CARD9 | inactive: -0.325
4 | GCAUUGUCUGUGAACAAGATT against TRIP4 | inactive: -0.0385
5 | CAGGUAUAUCAAUUUUUCATT against PRICKLE3 | inactive: 0.0332
6 | CAUAUGCCCUCUUCAAUCATT against ZBTB33 | inactive: 0.164
7 | UGGUCGUUAUGGUCCUAUATT against FUSIP1 | inactive: 0.865
8 | CCCUGAACAUCUACCAGAATT against PDE6B | inactive: -0.336
9 | GAUUACCGUUUAUUCCAUATT against GSPT1 | inactive: -0.761
10 | GGAAGGAUCAAACUACAAATT against AATF | inactive: 0.182
11 | ACACGUUGGAAGUAGCUGATT against OTUD4 | inactive: 0.167
12 | GGCUCAAGUUUGCCCGGAATT against KCNQ2 | inactive: 0.0368
13 | CGUUUAGAGGGCUACCAGATT against ARHGEF11 | inactive: -0.525
14 | GCAUCCCUACGGUUGUUGATT against EIF2B4 | inactive: 0
15 | GCUCAGGCAUUGUUGGAAATT against VBP1 | inactive: 0.317
16 | GCAGUAGAAGUAUCCGGGATT against THSD4 | inactive: 0.0657
17 | CGUGAUGAGUGAUUAUAGATT against SAT1 | inactive: -0.00791
18 | CAAGAUUCUUGACCUUGAATT against PDP2 | inactive: -0.0726
19 | GAACAACUCGGACAAGGAUTT against LMNB2 | inactive: -0.15
20 | GUAUCAAGCUCAUCACCGATT against IDH3A | inactive: 0.137
21 | AGAGGCUGCGGUUCAAAGATT against PTP4A3 | inactive: 0.354
22 | GGUGCUGACCGACAAAGAATT against TNFAIP1 | inactive: 0.0766
23 | GCAGGUUGUAAAUAGUGUATT against CCNO | inactive: -0.594

4 entries from above, as tab-separated lines.
Row	Sequence	median seed-adjusted z-score
1	AGACGGCGGUGGAACCAAATT against IL2RB	inactive: 0.333
5	CAGGUAUAUCAAUUUUUCATT against PRICKLE3	inactive: 0.0332
18	CAAGAUUCUUGACCUUGAATT against PDP2	inactive: -0.0726
19	GAACAACUCGGACAAGGAUTT against LMNB2	inactive: -0.15

Carrying on:

Row | Sequence | median seed-adjusted z-score
24 | GACCUCACGUUGUCGAAGATT against GTPBP4 | active: 1.01
25 | GAAGAGCAUUAAAAGCAUUTT against CARHSP1 | inactive: 0.384
26 | CGAAAGGGACGAUGACUAUTT against THBS1 | inactive: -0.847
27 | GAGGAGUUCUGUUACGAGATT against DOC2B | inactive: -0.423
28 | CUUUCUAGCAGUCACCAUATT against CIR | inactive: -0.197
29 | GAAGGGCGAUUACGAUGUATT against PTPN14 | inactive: 0
30 | GAAUAUUCACAGAGCGAUUTT against HOXB4 | inactive: 0.149
31 | CGACUGUUGUGAGCCCAAUTT against SRCRB4D | inactive: -0.0568
32 | GCAGGGUCAUUACGACUCATT against PAX9 | active: -1.16
33 | CAAGUUCCUUAACAAGGAATT against EIF2B4 | inactive: 0
34 | CCUUCCGAGUUAUUGGAUATT against DGKI | inactive: -0.417
35 | AAUCAGAUCAAAAACAUAATT against TNFRSF10C | inactive: 0
36 | GAGUCUAAGCUUUUCGAGATT against CAMK1G | inactive: -0.358
37 | GGAGAUUACCUUACGGAAATT against ROCK2 | inactive: -0.149
38 | CAAGGGAGCGUGAACUUUATT against ASCL2 | inactive: -0.249
39 | CCUGUGCUGUUAUGAAGCUTT against APC2 | inactive: 0.00354
40 | GGCCGAGAGUUUUACAUGATT against PARS2 | inactive: -0.433
41 | GGAAGCGAAUACUACUAUUTT against ST6GALNAC3 | inactive: -0.205
42 | CCAACACUAUUGUUGCGCUTT against SLC34A2 | inactive: 0
43 | GGCUGUUGAAGAAAGCGUATT against SLC18A1 | inactive: 0.0986
44 | GGCCUACAGUUGUCGUUCATT against ZNF555 | inactive: 0.141
45 | GGUUCCAUCUCGAUUGAUUTT against GPR20 | inactive: 0.442
46 | GCAGGUUCCUUAUCUGUCATT against BIRC5 | inactive: 0.0236

Row | Sequence | median seed-adjusted z-score
47 | CGACAUCAUAUUUAAGGAUTT against SHH | inactive: -0.517
48 | GCAUCUUGGAGUCAAGGGATT against RGS12 | inactive: 0.404
49 | CCAUGUCCUUCUUCAACUUTT against RGR | inactive: 0.217
50 | CAUCCAGAGUCAUAGUACATT against POLI | inactive: 0.857
51 | GAGUUUGACUCAGAUAUAUTT against STX17 | inactive: 0.00965
52 | GGACUGUCCAAACAACCGATT against CA10 | inactive: 0.255
53 | UGACGGUGCUGGAAACAUGTT against GGA1 | inactive: 0.172
54 | GGUUAGAAAUCAUCAACGATT against NTRK2 | inactive: 0.103
55 | GGACCUGCGGAACCAGAUUTT against ADCK4 | inactive: -0.181
56 | CUUUCUCUAUAUCACCUUUTT against SLC39A1 | inactive: 0.658
57 | ACAACAUCGCAAUCACAUATT against LOC442229 | inactive: 0.183
58 | CAGACUAUCUUUUCAGUAATT against MEGF9 | inactive: -0.0893
59 | GGCUGUAUCCAUUACGUCATT against ACACA | inactive: 0.00665
60 | CCAAAUGACUGGUCAAGAUTT against HS3ST4 | inactive: 0.284
61 | GGAUGUGACGAGCCCAGAATT against GRHPR | inactive: 0.475
62 | CCUCAGUACUCAUCAGAGATT against ZNF510 | inactive: 0.28
63 | GUUCCGAAGUGGUCUCAUUTT against MINPP1 | inactive: -0.0107
64 | CAUUAUUGCUGGUAUAACUTT against ACSL3 | inactive: 0
65 | GAGGGACCCUUAUCAGACATT against ELA1 | inactive: 0.687
66 | CAGACAUACUUUUUACUCATT against LRRC19 | inactive: -0.062
67 | GGUAAGGCCUUAUAAUGUATT against KHK | inactive: 0
68 | GAAGCUCUGCUAAUAGGUATT against ENOX1 | inactive: 0.0694
